{"source": "patent US5679640A", "about": "“Immunosuppressant peptides” (priority 1995, dated 1997)", "note": "At least one peptide structure holds a part that was inferred or is arguable (an end, a ring closure or a residue). Residues, ends and D or L forms follow the SMILES beside them.", "data": [{"biological_target": "T1, HLA-DR1 (Homo sapiens, UniProt P01903+P01911, A100R/D57E/F55L/F60I/F76Y/I96L/L162R/M171V/P40L/Q125E/R42F/V115G/Y59C)", "T1 construct": "EBV-transformed homozygous cell lines were used as a source of DR molecules; endogenous in cells; host or cells: LG-2 (EBV-transformed human B cell line, DR1 homozygous); lysate purified on a monoclonal antibody LB3.1 column", "assay": "DR-peptide binding assay, DR1", "details": "Table 1, DR1, relative to HA = 1", "values": [{"molecule": "CC[C@H](C)[C@H](NC(=O)[C@@H](N)CCCCN)C(=O)N[C@@H](C)C(=O)N[C@@H](CCCCN)C(=O)N[C@@H](CCSC)C(=O)N[C@@H](CCC(=O)O)C(=O)N[C@@H](CCCCN)C(=O)N[C@@H](C)C(=O)N[C@@H](CO)C(=O)N[C@@H](CO)C(=O)N[C@H](C(=O)N[C@@H](Cc1ccccc1)C(=O)N[C@@H](CC(N)=O)C(=O)N[C@H](C(=O)N[C@H](C(=O)N[C@@H](CC(N)=O)C(=O)N[C@@H](CO)C(=O)O)C(C)C)C(C)C)C(C)C", "note": "[CS 382-398, reference compound] (H-KIAKMEKASSVFNVVNS-OH)", "Relative Binding Affinity": "± (0.1 to .50)"}, {"molecule": "CC(C)C[C@H](NC(=O)[C@H](C)NC(=O)[C@@H](N)CCC(=O)O)C(=O)N[C@H](C(=O)N[C@@H](CCCNC(=N)N)C(=O)N[C@@H](CCC(N)=O)C(=O)NCC(=O)N[C@@H](Cc1c[nH]cn1)C(=O)N[C@@H](CC(C)C)C(=O)N[C@@H](C)C(=O)N[C@@H](CCCCN)C(=O)N[C@H](C(=O)N[C@@H](C)C(=O)N[C@@H](Cc1ccc(O)cc1)C(=O)N[C@H](C(=O)N[C@@H](Cc1ccc(O)cc1)C(=O)N[C@@H](CCCCN)C(=O)N1CCC[C@H]1C(=O)N[C@@H](CC(N)=O)C(=O)N[C@@H](CC(N)=O)C(=O)N[C@H](C(=O)O)[C@@H](C)O)C(C)C)C(C)C)C(C)C", "note": "[NASE 101-120, reference compound] (H-EALVRQGHLAKVAYVYKPNNT-OH)", "Relative Binding Affinity": "++ (affinity greater than 1.0)"}, {"molecule": "CC[C@H](C)[C@H](NC(=O)[C@H](CO)NC(=O)[C@H](C)NC(=O)[C@@H](NC(=O)[C@H](CO)NC(=O)[C@H](CCCNC(=N)N)NC(=O)[C@H](CCCNC(=N)N)NC(=O)[C@@H](N)CO)C(C)C)C(=O)N[C@H](C(=O)NCC(=O)N[C@H](C(=O)N[C@@H](CC(C)C)C(=O)N[C@H](C(=O)N[C@@H](CCCNC(=N)N)C(=O)N[C@@H](CCSC)C(=O)O)C(C)C)[C@@H](C)O)C(C)C", "note": "[PT 214-228, reference compound] (H-SRRSVASIVGTLVRM-OH)", "Relative Binding Affinity": "++ (affinity greater than 1.0)"}, {"molecule": "CC(C)C[C@H](NC(=O)CNC(=O)[C@H](CCCNC(=N)N)NC(=O)[C@H](CCCCN)NC(=O)[C@@H](NC(=O)[C@H](CCCNC(=N)N)NC(=O)[C@H](Cc1c[nH]cn1)NC(=O)[C@H](CCC(=O)O)NC(=O)[C@@H](N)Cc1ccc(O)cc1)C(C)C)C(=O)N[C@H](C(=O)N[C@H](C(=O)N[C@@H](C)C(=O)N[C@H](C(=O)N[C@@H](C)C(=O)NCC(=O)N[C@@H](C)C(=O)O)C(C)C)C(C)C)[C@@H](C)O", "note": "[reference compound] (H-YEHRVKRGLTVAVAGA-OH)", "Relative Binding Affinity": "± (0.1 to .50)"}]}]}
